For the assay, the target named is Trichosanthin (Trichosanthes kirilowii Maximowicz). Put plainly: affinity purification with mass spectrometry; 50 μg TCS coupled to CNBr-activated Sepharose beads; HepG2 lysate (50 mM Tris-HCl pH 7.5, 150 mM NaCl, 1 mM EDTA, 1% NP-40), 4 °C, 2 hours; SDS-PAGE, silver staining, bands cut and analysed by LC-MS/MS; only the target purified.

Results are given in words; binding and its absence hold for the method and conditions named. Binding seen in cells or lysates may run through a third protein. A yes stands for co-enrichment or nearness to the bait. Other partners may have been found.

B1: GGA3 (Golgi-localized, γ-ear containing, Arf-binding protein 3) (protein, UniProt Q9NZ52 1-723)
chain: MAEAEGESLESWLNKATNPSNRQEDWEYIIGFCDQINKELEGPQIAVRLLAHKIQSPQEWEALQALTVLEACMKNCGRRFHNEVGKFRFLNELIKVVSPKYLGDRVSEKVKTKVIELLYSWTMALPEEAKIKDAYHMLKRQGIVQSDPPIPVDRTLIPSPPPRPKNPVFDDEEKSKLLAKLLKSKNPDDLQEANKLIKSMVKEDEARIQKVTKRLHTLEEVNNNVRLLSEMLLHYSQEDSSDGDRELMKELFDQCENKRRTLFKLASETEDNDNSLGDILQASDNLSRVINSYKTIIEGQVINGEVATLTLPDSEGNSQCSNQGTLIDLAELDTTNSLSSVLAPAPTPPSSGIPILPPPPQASGPPRSRSSSQAEATLGPSSTSNALSWLDEELLCLGLADPAPNVPPKESAGNSQWHLLQREQSDLDFFSPRPGTAACGASDAPLLQPSAPSSSSSQAPLPPPFPAPVVPASVPAPSAGSSLFSTGVAPALAPKVEPAVPGHHGLALGNSALHHLDALDQLLEEAKVTSGLVKPTTSPLIPTTTPARPLLPFSTGPGSPLFQPLSFQSQGSPPKGPELSLASIHVPLESIKPSSALPVTAYDKNGFRILFHFAKECPPGRPDVLVVVVSMLNTAPLPVKSIVLQAAVPKSMKVKLQPPSGTELSPFSPIQPPAAITQVMLLANPLKEKVRLRYKLTFALGEQLSTEVGEVDQFPPVEQWGNL
For B1, the binding entry is on record as “binds”.

B2: GGA1 (Golgi-localized, γ-ear containing, Arf-binding protein 1) (protein, UniProt Q9UJY5 1-639)
chain: MEPAMEPETLEARINRATNPLNKELDWASINGFCEQLNEDFEGPPLATRLLAHKIQSPQEWEAIQALTVLETCMKSCGKRFHDEVGKFRFLNELIKVVSPKYLGSRTSEKVKNKILELLYSWTVGLPEEVKIAEAYQMLKKQGIVKSDPKLPDDTTFPLPPPRPKNVIFEDEEKSKMLARLLKSSHPEDLRAANKLIKEMVQEDQKRMEKISKRVNAIEEVNNNVKLLTEMVMSHSQGGAAAGSSEDLMKELYQRCERMRPTLFRLASDTEDNDEALAEILQANDNLTQVINLYKQLVRGEEVNGDATAGSIPGSTSALLDLSGLDLPPAGTTYPAMPTRPGEQASPEQPSASVSLLDDELMSLGLSDPTPPSGPSLDGTGWNSFQSSDATEPPAPALAQAPSMESRPPAQTSLPASSGLDDLDLLGKTLLQQSLPPESQQVRWEKQQPTPRLTLRDLQNKSSSCSSPSSSATSLLHTVSPEPPRPPQQPVPTELSLASITVPLESIKPSNILPVTVYDQHGFRILFHFARDPLPGRSDVLVVVVSMLSTAPQPIRNIVFQSAVPKVMKVKLQPPSGTELPAFNPIVHPSAITQVLLLANPQKEKVRLRYKLTFTMGDQTYNEMGDVDQFPPPETWGSL
In the case of B2, the binding entry is reported as “binds”.

For the origin of these results see article PMC5432272.
